Data taken from patent US8754038B2, “Template-fixed peptidomimetics with CCR10 antagonistic activity” (priority 2009, dated 2014).
At least one structure is not confirmed: it was looked up by name or label, or the drawing left a doubt. Numbered stars: 1 amine (or outer) side, 2 acyl side, 3 side chain; on linkers, the order of the positions; unused ones are H or OH. Square brackets hold non-standard residues; d marks the D form. Peptide text beside a SMILES is read from it. X3 = O=C([C@H](Cc1ccc(Oc2ccc(O)cc2)cc1)N[*:1])[*:2]; Phe(4-CF3) = N[C@@H](Cc1ccc(C(F)(F)F)cc1)C(=O)O; Oic = O=C(O)[C@@H]1C[C@@H]2CCCC[C@@H]2N1; hCit = NC(=O)NCCCC[C@H](N)C(=O)O; 3Pal = N[C@@H](Cc1cccnc1)C(=O)O; dPip = O=C(O)[C@H]1CCCCN1; Ac5c = NC1(C(=O)O)CCCC1; Dab = NCC[C@H](N)C(=O)O

Columns and labels:
human CCR10 [1] = target: T1, human CCR10 (Homo sapiens, UniProt P46092); test: Calcium flux assay (CCR10 antagonism, CCL27 as agonist); assay type: cell-based; conditions: read-out: IC50 (nM) Calcium Flux Assay; CCR10 transfected 300-19 murine pre-B cells; CCL27 30 nM
T1 construct: expressed in transfected cells
T1 sequence (P46092 1-362): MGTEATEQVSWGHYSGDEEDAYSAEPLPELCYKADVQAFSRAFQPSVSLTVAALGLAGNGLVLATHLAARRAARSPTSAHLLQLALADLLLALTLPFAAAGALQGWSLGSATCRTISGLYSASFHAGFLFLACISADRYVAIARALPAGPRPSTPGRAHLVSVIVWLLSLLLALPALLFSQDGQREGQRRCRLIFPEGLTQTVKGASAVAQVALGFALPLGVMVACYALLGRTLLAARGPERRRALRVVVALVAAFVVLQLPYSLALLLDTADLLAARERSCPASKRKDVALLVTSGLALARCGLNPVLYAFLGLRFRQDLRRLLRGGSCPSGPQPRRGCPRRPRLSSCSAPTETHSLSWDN
Experimental: (§1) Lyophilized peptides were weighed on a Microbalance (Mettler MX5) and dissolved in aqueous 90% DMSO to a final concentration of 10 mM unless otherwise stated. Stock solutions were kept at +4° C., and protected from light.
(§2) Peptides were assayed for CCR10 antagonism in a calcium flux assay and in a chemotaxis assay using a mouse pre-B cell line 300-19 stably transfected with human CCR10, and with human CCL27 as agonist.
The calcium flux release was assessed using CCR10 transfected 300-19 murine pre-B cells. These cells were labeled as a batch with Calcium4 Reagent (Molecular Devices, Sunnyvale, Calif.) in HBSS buffer for 60 min.
After dispensing 8×10^4 cells in each well of a 384-well black plate, a concentrated solution of the β-hairpin peptidomimetics of this invention in HBSS+0.1% BSA+0.1% DMSO (final concentration) was added to the cells. The entire plate was centrifuged and placed in a Flexstation II (Molecular Devices) automated plate reader. After reading a 20 s baseline, the Flexstation dispensed CCL27 (RnD systems) at a final concentration of 30 nM in HBSS+0.1% BSA onto the cells and calcium flux was measured for an additional 70 s.
Alternatively a FIipR384 (Molecular Devices) was used for read out of the 384-well plates. In this case about 8×10^4 cells were placed in each well, centrifuged, placed in the FlipR and after 5 s of baseline reading, the β-hairpin peptidomimetics in HBSS+0.1% BSA+0.1% DMSO (final concentration) were added. After an incubation time of 5 min, the CCL27 solution was added to the mixture and the calcium flux was measured for 200 s.
The maximum signal was determined from control wells without inhibitor. Percentage of inhibition was calculated from a range of compound concentrations, which were subsequently used to calculate IC50 values (Softmax Pro, Molecular Devices). All steps were carried out at room temperature.

human CCR10 [2] = target: T1, human CCR10; test: Chemotaxis assay (CCR10-transfected 300-19 cells, CCL27 gradient); assay type: cell-based; conditions: read-out: IC50 (nM) Chemotaxis Assay; CCR10-transfected 300-19 murine pre-B cells; 30 nM CCL27 gradient
Experimental: as §1, §2
The chemotactic response of CCR10-transfected 300-19 murine pre-B cells to a gradient of CCL27 (CTACK) was measured using disposable Transwell® assay plates from Costar (5 μm pore size) according to the protocol of the manufacturer. Briefly, cells were grown under sterile conditions at 37° C. with 5% CO2 in flasks containing RPMI+5% FCS, glutamine, penicillin/streptomycin (all media components were from Life Technologies) and the appropriate selection antibiotics (Puromycin, G418 or Tetracycline). For the assay, cells were pelleted by centrifugation, washed once in Dulbecco's phosphate buffered saline (DPBS), and resuspended to give 1×10^6 cells/ml in RPMI+0.5% bovine serum albumin (BSA). 100 μl of cell suspension was applied to the top of the assay filter. The β-hairpin peptidomimetics, diluted in the same assay medium, were added to both top and bottom chambers. The cells were allowed to migrate for 4-6 hours at 37° C. into the bottom chamber of the assay plate containing 30 nM of CCL27 (RnD systems). Migrated cells were counted using a FACS cytometer (Cytomics FC500, Beckman Coulter). Data normalization was performed using the number of any cells that had migrated in the absence of the β-hairpin peptidomimetic and the number of cells that have randomly migrated in absence of CCL27 [these values were taken as 100% (no inhibitory activity) and 0%, respectively]. From a range of compound concentrations IC50 were determined using Prism5 (GraphPad software).

Structure (SMILES) | IC50 (human CCR10 [1]) | IC50 (human CCR10 [2])
NC(=O)NCCCC[C@@H]1NC(=O)[C@H](Cc2c[nH]c3ccccc23)NC(=O)C2(CCCC2)NC(=O)[C@H](Cc2c[nH]c3ccccc23)NC(=O)[C@@H]2C[C@@H]3CCCC[C@@H]3N2C(=O)[C@H]2CCCN2C1=O [compound 60, cyclo(-Trp-Cyp-Trp-hCys-^DPro-Oic-)] (cyclo([Ac5c]W[hCit][dP][Oic]W)) | 54.9 ± 35.5 nM | 8.7 nM
O=C1NC2(CCCC2)C(=O)N[C@@H](Cc2c[nH]c3ccccc23)C(=O)N[C@@H](Cc2cccnc2)C(=O)N2CCCC[C@@H]2C(=O)N2[C@@H](C[C@@H]3CCCC[C@@H]32)C(=O)N[C@H]1Cc1ccc(C(F)(F)F)cc1 [compound 110, cyclo(-Phe(4CF3)-Cyp-Trp-3 Pal-^DPic-Oic-)] (cyclo([3Pal][dPip][Oic][Phe(4-CF3)][Ac5c]W)) | 63.2 ± 25.6 nM | 2.7 nM
NCC[C@@H]1NC(=O)[C@H](Cc2c[nH]c3ccccc23)NC(=O)C2(CCCC2)NC(=O)[C@H](Cc2ccc(Oc3ccc(O)cc3)cc2)NC(=O)[C@@H]2C[C@@H]3CCCC[C@@H]3N2C(=O)[C@H]2CCCN2C1=O [compound 90, cyclo(-Tyr(4OHPh)-Cyp-Trp-Dab-^DPro-Oic-)] (cyclo([Ac5c]W[Dab][dP][Oic][X3])) | 48.9 ± 64.3 nM | 6.6 nM
